Laboratory results: PubChem BioAssay AID1671195 (Yale University, 2021)
Screen: 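Genes whose knockdown alters LDL uptake in liver cancer cells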 (primary screen). System: human Huh7 hepatoma cells. Reagents: siRNA pool against human genes, 18 nM. Timing: about 2 to 2.5 days of knockdown, then 8 h LDL uptake. Challenge: DiI-labelled LDL at 30 µg/ml for 8 h, in lipoprotein-deficient serum medium. Detection: 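Fluorescent LDL signal imaged in cells, scaled to the plate median, robust z-score for each replicate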. Scale: robust z-score: higher = more LDL uptake after knockdown. Hit rule: 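Active when two or more replicates show a robust z-score above 2 or below -2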.
The whole screen tested about 22,000 reagents; this is an unselected part. About 1,510 of them (6.9%) were called active. 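Active includes knockdowns raising or lowering LDL uptake; positive z-scores mean more uptake, negative mean less.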 A number with no mark means an inactive call.

LOC400552 (retired record) (GeneID 400552) → robust z-score, replicate 1: -1.37; robust z-score, replicate 2: -1.09; robust z-score, replicate 3: -0.659
LOC400092 (retired record) (GeneID 400092) → robust z-score, replicate 1: 0.792; robust z-score, replicate 2: -0.164; robust z-score, replicate 3: 0.0904
LRRC15 (GeneID 131578) → robust z-score, replicate 1: 1.32; robust z-score, replicate 2: -0.312; robust z-score, replicate 3: 0.567
PPP4R2 (GeneID 151987) → robust z-score, replicate 1: 1.18; robust z-score, replicate 2: -0.21; robust z-score, replicate 3: 1.1
ARHGAP27P1 (GeneID 146880) → robust z-score, replicate 1: -0.52; robust z-score, replicate 2: 0.57; robust z-score, replicate 3: -0.945
CEBPG (GeneID 1054) → robust z-score, replicate 1: -0.515; robust z-score, replicate 2: -0.401; robust z-score, replicate 3: 2.14
LOC442208 (retired record) (GeneID 442208) → robust z-score, replicate 1: -2.96 (active); robust z-score, replicate 2: -2.99; robust z-score, replicate 3: -2.81
TMX3 (GeneID 54495) → robust z-score, replicate 1: 0.911; robust z-score, replicate 2: 1.1; robust z-score, replicate 3: 0.755
RPL23AP15 (GeneID 391175) → robust z-score, replicate 1: -0.167; robust z-score, replicate 2: 0.672; robust z-score, replicate 3: 0.81
PRSS45P (GeneID 377047) → robust z-score, replicate 1: -1.06; robust z-score, replicate 2: -0.243; robust z-score, replicate 3: -1.39
OR52A4P (GeneID 390053) → robust z-score, replicate 1: 2.17 (active); robust z-score, replicate 2: 2.24; robust z-score, replicate 3: 2.97
KRT3 (GeneID 3850) → robust z-score, replicate 1: -1.21; robust z-score, replicate 2: -0.647; robust z-score, replicate 3: -1.32
FOXA2 (GeneID 3170) → robust z-score, replicate 1: -0.00467; robust z-score, replicate 2: 0.495; robust z-score, replicate 3: 1.05
SEC14L3 (GeneID 266629) → robust z-score, replicate 1: 0.603; robust z-score, replicate 2: 0.473; robust z-score, replicate 3: 0.64
PPP6R1 (GeneID 22870) → robust z-score, replicate 1: 0.786; robust z-score, replicate 2: 0.764; robust z-score, replicate 3: 1.31
TFDP1 (GeneID 7027) → robust z-score, replicate 1: -1.18; robust z-score, replicate 2: -0.949; robust z-score, replicate 3: -1.07
DDX3Y (GeneID 8653) → robust z-score, replicate 1: 0.609; robust z-score, replicate 2: 1.86; robust z-score, replicate 3: 1.73
TULP4 (GeneID 56995) → robust z-score, replicate 1: -0.899; robust z-score, replicate 2: -1.43; robust z-score, replicate 3: -1.24
FAM76A (GeneID 199870) → robust z-score, replicate 1: -0.675; robust z-score, replicate 2: -1.34; robust z-score, replicate 3: -1.12
NUAK2 (GeneID 81788) → robust z-score, replicate 1: 2.12; robust z-score, replicate 2: 1.03; robust z-score, replicate 3: 1.89
LRRCC1 (GeneID 85444) → robust z-score, replicate 1: 3.46 (active); robust z-score, replicate 2: 2.91; robust z-score, replicate 3: 3.64
LPIN3 (GeneID 64900) → robust z-score, replicate 1: -0.535; robust z-score, replicate 2: -0.129; robust z-score, replicate 3: -0.683
PPFIBP2 (GeneID 8495) → robust z-score, replicate 1: -2.16 (active); robust z-score, replicate 2: -2.02; robust z-score, replicate 3: -2.1
BRD4 (GeneID 23476) → robust z-score, replicate 1: 0.436; robust z-score, replicate 2: 0.795; robust z-score, replicate 3: 0.463
